Assay results as given in the supplement of paper PMC8728848.
This is one part of the list.

Assays:
Test in all cases: glycan array binding signal (z-score within array); higher = stronger binding
Settings in all cases: glycan notation: IUPAC condensed, linker removed
[1] = biological target: Neu5Ac(a2-6)Gal(b1-4)GlcNAc(b1-2)Man(a1-3)[Neu5Ac(a2-3)Gal(b1-4)GlcNAc(b1-2)Man(a1-6)]Man(b1-4)GlcNAc(b1-4)GlcNAc
Summary of the method: (§1)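 Negative Z-scores can be read as non-binding. The Z-score is calculated within each array and then averaged across arrays of one protein sequence at different concentrations or buffers and across linkers. Arrays, 3228 in all, were curated from the Consortium for Functional Glycomics database and kept only where the protein sequence was available.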

[2] = biological target: Neu5Ac(a2-6)Gal(b1-4)GlcNAc(b1-2)Man(a1-3)[Neu5Ac(a2-6)Gal(b1-4)GlcNAc(b1-2)Man(a1-6)]Man(b1-4)GlcNAc(b1-4)GlcNAc
Summary of the method: as §1

[3] = biological target: Neu5Ac(a2-6)Gal(b1-4)GlcNAc(b1-2)Man(a1-3)[Neu5Ac(a2-6)Gal(b1-4)GlcNAc(b1-2)Man(a1-6)]Man(b1-4)GlcNAc(b1-4)[Fuc(a1-6)]GlcNAc
Summary of the method: as §1

[4] = biological target: Neu5Ac(a2-6)Gal(b1-4)GlcNAc(b1-2)Man(a1-6)Man(b1-4)GlcNAc(b1-4)GlcNAc
Summary of the method: as §1

[5] = biological target: Neu5Ac(a2-6)Gal(b1-4)GlcNAc(b1-2)Man(a1-6)[Gal(b1-4)GlcNAc(b1-2)Man(a1-3)]Man(b1-4)GlcNAc(b1-4)GlcNAc
Summary of the method: as §1

[6] = biological target: Neu5Ac(a2-6)Gal(b1-4)GlcNAc(b1-2)Man(a1-6)[GlcNAc(b1-2)Man(a1-3)]Man(b1-4)GlcNAc(b1-4)GlcNAc
Summary of the method: as §1

[7] = biological target: Neu5Ac(a2-6)Gal(b1-4)GlcNAc(b1-2)Man(a1-6)[Man(a1-3)]Man(b1-4)GlcNAc(b1-4)GlcNAc
Summary of the method: as §1

[8] = biological target: Neu5Ac(a2-6)Gal(b1-4)GlcNAc(b1-2)[Neu5Ac(a2-6)Gal(b1-4)GlcNAc(b1-4)]Man(a1-3)[GlcNAc(b1-4)][Neu5Ac(a2-6)Gal(b1-4)GlcNAc(b1-2)[Neu5Ac(a2-6)Gal(b1-4)GlcNAc(b1-6)]Man(a1-6)]Man(b1-4)GlcNAc(b1-4)GlcNAc
Summary of the method: as §1

[9] = biological target: Neu5Ac(a2-6)Gal(b1-4)GlcNAc(b1-2)[Neu5Ac(a2-6)Gal(b1-4)GlcNAc(b1-4)]Man(a1-3)[GlcNAc(b1-4)][Neu5Ac(a2-6)Gal(b1-4)GlcNAc(b1-4)Man(a1-6)]Man(b1-4)GlcNAc(b1-4)GlcNAc
Summary of the method: as §1

[10] = biological target: Neu5Ac(a2-6)Gal(b1-4)GlcNAc(b1-2)[Neu5Ac(a2-6)Gal(b1-4)GlcNAc(b1-6)]Man(a1-6)[Neu5Ac(a2-6)Gal(b1-4)GlcNAc(b1-2)Man(a1-3)][GlcNAc(b1-4)]Man(b1-4)GlcNAc(b1-4)GlcNAc
Summary of the method: as §1

[11] = biological target: Neu5Ac(a2-6)Gal(b1-4)GlcNAc(b1-3)Gal(b1-3)GlcNAc
Summary of the method: as §1

[12] = biological target: Neu5Ac(a2-6)Gal(b1-4)GlcNAc(b1-3)Gal(b1-4)GlcNAc
Summary of the method: as §1

[13] = biological target: Neu5Ac(a2-6)Gal(b1-4)GlcNAc(b1-3)Gal(b1-4)GlcNAc(b1-2)Man(a1-3)[Neu5Ac(a2-6)Gal(b1-4)GlcNAc(b1-3)Gal(b1-4)GlcNAc(b1-2)Man(a1-6)]GalNAc
Summary of the method: as §1

[14] = biological target: Neu5Ac(a2-6)Gal(b1-4)GlcNAc(b1-3)Gal(b1-4)GlcNAc(b1-3)Gal(b1-4)GlcNAc
Summary of the method: as §1

[15] = biological target: Neu5Ac(a2-6)Gal(b1-4)GlcNAc(b1-3)Gal(b1-4)GlcNAc(b1-3)Gal(b1-4)GlcNAc(b1-2)Man(a1-3)[Neu5Ac(a2-6)Gal(b1-4)GlcNAc(b1-3)Gal(b1-4)GlcNAc(b1-3)Gal(b1-4)GlcNAc(b1-2)Man(a1-6)]GalNAc
Summary of the method: as §1

[16] = biological target: Neu5Ac(a2-6)Gal(b1-4)GlcNAc(b1-3)Gal(b1-4)GlcNAc(b1-3)GalNAc
Summary of the method: as §1

[17] = biological target: Neu5Ac(a2-6)Gal(b1-4)GlcNAc(b1-3)Gal(b1-4)GlcNAc(b1-3)[Neu5Ac(a2-6)Gal(b1-4)GlcNAc(b1-3)Gal(b1-4)GlcNAc(b1-6)]GalNAc
Summary of the method: as §1

[18] = biological target: Neu5Ac(a2-6)Gal(b1-4)GlcNAc(b1-3)Gal(b1-4)GlcNAc(b1-6)[Gal(b1-3)]GalNAc
Summary of the method: as §1

[19] = biological target: Neu5Ac(a2-6)Gal(b1-4)GlcNAc(b1-3)Gal(b1-4)[Fuc(a1-3)]GlcNAc(b1-3)Gal(b1-4)[Fuc(a1-3)]GlcNAc
Summary of the method: as §1

[20] = biological target: Neu5Ac(a2-6)Gal(b1-4)GlcNAc(b1-3)GalNAc
Summary of the method: as §1

[21] = biological target: Neu5Ac(a2-6)Gal(b1-4)GlcNAc(b1-3)[Neu5Ac(a2-6)Gal(b1-4)GlcNAc(b1-6)]GalNAc
Summary of the method: as §1

[22] = biological target: Neu5Ac(a2-6)Gal(b1-4)GlcNAc(b1-6)GalNAc
Summary of the method: as §1

[23] = biological target: Neu5Ac(a2-6)Gal(b1-4)GlcNAc(b1-6)[Gal(b1-3)GlcNAc(b1-3)]Gal(b1-4)Glc
Summary of the method: as §1

[24] = biological target: Neu5Ac(a2-6)Gal(b1-4)GlcNAc(b1-6)[Gal(b1-3)]GalNAc
Summary of the method: as §1

[25] = biological target: Neu5Ac(a2-6)Gal(b1-4)GlcNAc6S
Summary of the method: as §1

[26] = biological target: Neu5Ac(a2-6)GalNAc
Summary of the method: as §1

[27] = biological target: Neu5Ac(a2-6)GalNAc(b1-4)GlcNAc
Summary of the method: as §1

[28] = biological target: Neu5Ac(a2-6)GalNAc(b1-4)GlcNAc6S
Summary of the method: as §1

[29] = biological target: Neu5Ac(a2-6)GlcNAc(b1-4)GlcNAc
Summary of the method: as §1

[30] = biological target: Neu5Ac(a2-6)GlcNAc(b1-4)GlcNAc(b1-4)GlcNAc
Summary of the method: as §1

B1: Pwp6 (Candida glabrata) (protein)
chain: MGSSHHHHHHSSGLVPRGSHMASANLPKLTNICQIPDNVKKTSGFKGEIRRIGLFPPGGDYTYLLKFPSTGSTASDTISLTTKPQLSTSGWFPSLFGHTYFIKADLLVYMVAYFVPTETGEYTFKLVNSDDAAVMYVGNPSAFPCGSIDTWPEPRKEDINVCDKISASTKLYMEKGLAYPVRLVWYNGGGDGQFNAQFIDPSGTTHTDWNGYVWQYDACTDCDYK
- glycan array binding signal (z-score) [1]: 0.761
- glycan array binding signal (z-score) [2]: 1.85
- glycan array binding signal (z-score) [3]: 2.8
- glycan array binding signal (z-score) [4]: 0.24
- glycan array binding signal (z-score) [5]: -0.261
- glycan array binding signal (z-score) [6]: 0.357
- glycan array binding signal (z-score) [7]: 0.213
- glycan array binding signal (z-score) [8]: -0.122
- glycan array binding signal (z-score) [9]: -0.266
- glycan array binding signal (z-score) [10]: -0.352
- glycan array binding signal (z-score) [11]: -0.183
- glycan array binding signal (z-score) [12]: -0.084
- glycan array binding signal (z-score) [13]: 1.26
- glycan array binding signal (z-score) [14]: -0.128
- glycan array binding signal (z-score) [15]: 8.45
- glycan array binding signal (z-score) [16]: 0.434
- glycan array binding signal (z-score) [17]: 1.55
- glycan array binding signal (z-score) [18]: -0.211
- glycan array binding signal (z-score) [19]: -0.242
- glycan array binding signal (z-score) [20]: 0.225
- glycan array binding signal (z-score) [21]: -0.208
- glycan array binding signal (z-score) [22]: 0.04
- glycan array binding signal (z-score) [23]: -0.043
- glycan array binding signal (z-score) [24]: 0.896
- glycan array binding signal (z-score) [25]: -0.336
- glycan array binding signal (z-score) [26]: -0.898
- glycan array binding signal (z-score) [27]: -0.603
- glycan array binding signal (z-score) [28]: 0.14
- glycan array binding signal (z-score) [29]: 1.37
- glycan array binding signal (z-score) [30]: -0.291
